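Primary screen of methionyl-tRNA synthetase; the read-out is not stated. Target: Methionyl-tRNA synthetase (putative), Leishmania donovani (UniProt E9BF75). The test concentration is not given. Values are per cent inhibition. About 68,000 compounds were tested under these conditions; 0.035% (about 24) showed 50% or more at least once.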

The chains behind the UniProt entries cited, without tags or fusion partners.
UniProt E9BF75, entry or part of it: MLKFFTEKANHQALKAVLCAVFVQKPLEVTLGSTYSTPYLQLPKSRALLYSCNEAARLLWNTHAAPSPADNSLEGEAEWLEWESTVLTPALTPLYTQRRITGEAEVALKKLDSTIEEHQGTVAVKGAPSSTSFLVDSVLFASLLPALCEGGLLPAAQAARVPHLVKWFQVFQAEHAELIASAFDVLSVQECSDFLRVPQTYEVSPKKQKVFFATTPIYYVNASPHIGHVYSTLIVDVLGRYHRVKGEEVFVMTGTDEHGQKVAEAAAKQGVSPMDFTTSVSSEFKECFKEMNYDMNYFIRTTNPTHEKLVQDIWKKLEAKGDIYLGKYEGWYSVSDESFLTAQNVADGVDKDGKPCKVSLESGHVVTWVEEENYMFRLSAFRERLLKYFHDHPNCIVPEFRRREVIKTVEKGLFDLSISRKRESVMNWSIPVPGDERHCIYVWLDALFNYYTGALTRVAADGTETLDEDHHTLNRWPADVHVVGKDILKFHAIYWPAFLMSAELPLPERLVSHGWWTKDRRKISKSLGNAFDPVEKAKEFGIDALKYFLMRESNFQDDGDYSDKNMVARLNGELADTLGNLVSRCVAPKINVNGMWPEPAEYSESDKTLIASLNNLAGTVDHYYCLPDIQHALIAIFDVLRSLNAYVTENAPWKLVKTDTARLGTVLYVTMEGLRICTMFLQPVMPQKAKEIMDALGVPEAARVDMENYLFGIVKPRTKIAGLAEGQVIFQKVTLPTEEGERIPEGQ

Results are percentages, as filed. The controls that fix the scale are not given in the record; negative values are as filed. Compounds were drawn at random from those tested, without regard to their results.

Compound	inhibition
O=C(c1cccc2c1OCO2)N1CCCC(n2cccn2)C1 (stereo unspecified)	9.804%
COc1ccc(CN2CC[C@H]3[C@H]2CCN3C(=O)c2cnn(C)c2)cc1	5.724%
c1cnc2c(c1)cc([C@@H]1CCCO1)n2CCN1CCOCC1	5.208%
Fc1ccc2[nH]c([C@H]3CCN(C4CCOCC4)C3)nc2c1	3.297%
CCOCCCNS(=O)(=O)c1ccc2c(c1)NC(=O)C(C)O2 (stereo unspecified)	2.66%
Cc1nn(C)c2c(N3CCN(C(=O)C4CCC4)CC3)ncnc12	12.86%
CCOc1cc(CNCc2cnc(C)cn2)c(Cl)cc1OC(C)C	11.94%
Cn1c(CN2CCC(O)CC2)nnc1C1CCCN(c2ccncc2)C1 (stereo unspecified)	1.423%
Cc1ccc(C)c(C(=O)Nc2ccc(OC3CCN(C)CC3)cc2)c1	4.013%
NC(=O)CN1CCCN(C(=O)c2ccn(-c3ccccc3)n2)CC1	15.93%
CC(NS(=O)(=O)CCCC#N)c1cccc(-n2cccn2)c1 (stereo unspecified)	9.948%
OC[C@@H](O)CN(CCC(F)(F)F)c1ncccn1	6.906%
O=C(c1ccc(Cl)cc1)N1CCc2nc(C(=O)N3CCCC3)sc2CC1	5.185%
CCC1c2ccsc2CCN1C(=O)NCCNc1ncccn1 (stereo unspecified)	14.72%
CCc1c(C)nn(CCNC(=O)Cc2csc(C)n2)c1C	7.843%
CCNC(=O)[C@@H]1C[C@H](N)CN1C(=O)c1c[nH]c2ccccc12	15.97%
Cc1cn[nH]c1C1COCCN1C(=O)c1cc(F)ccc1F (stereo unspecified)	7.233%
Cc1ccc(C)c2c(O)cc(CN3CCNC(=O)C3C)nc12 (stereo unspecified)	11.76%
Cc1nc(C2CCCN(C(=O)COCc3ccccc3)C2)no1 (stereo unspecified)	13.01%
CCOCc1cnc2n1CCN(C(=O)Cc1cccs1)C2C (stereo unspecified)	12.78%
O=C(CN1CC(c2nc(C3CC3)no2)C1)NCc1ccc(F)cc1	5.367%
Nc1cc(CCCNC(=O)NC2CCCC2)nn1-c1ccccc1	12.57%
Cc1ccsc1CN(CCN(C)C)C(=O)c1ccc(C#N)nc1	5.842%
O=C(NC1CC1)c1cc(Sc2ncccn2)ccn1	7.094%
O=C(c1cccc(CNS(=O)(=O)c2ccc(F)cc2)c1)N1CCCC1	20.77%
Cc1ccn2c(=O)cc(CSCC(=O)Nc3nnc(C(C)C)s3)nc2c1	3.753%
O=C1CCCN1Cc1nnc(SCc2ccc3c(c2)CCC3)o1	3.714%
CN(Cc1cccc(O)c1)CC1CCCN(CCc2ccc(Cl)cc2)C1 (stereo unspecified)	15.99%
CCc1nnsc1C(=O)NCc1c(C)nn(CCOC)c1C	15.81%
CCC[C@@H]1CN(C(=O)c2cc3ccccc3s2)C[C@H]1NS(C)(=O)=O	14.37%
CCc1nc(CN(C)C2CCN(CCc3ccncc3)C2)no1 (stereo unspecified)	6.024%
CC(C)N1CCC(CC(=O)N2CCC(C(O)c3nccn3C)CC2)CC1 (stereo unspecified)	12.27%
CCN(C)C[C@@H]1CN(S(=O)(=O)c2ccc(OC)cc2)C[C@@H]1CO	4.011%
CO[C@@H]1CC[C@@H](NC(=O)CCc2ccc(Cl)cc2)[C@H]1O	16.86%
Cc1ccc(CN2CCc3onc(C(=O)Nc4cccnc4)c3C2)o1	9.89%
Cc1noc(CCNC(=O)C2CSCN2C(=O)C2CCCC2)n1 (stereo unspecified)	12.54%
CCNC(=O)N1CCC2(C1)c1ccccc1S(=O)(=O)N2CCC(C)C (stereo unspecified)	10.46%
CCc1nc(CN2CCCN(C(=O)C3CCOC3)CC2)cs1 (stereo unspecified)	-2.089%
Cc1cc(C)n(C2CCN(Cc3c(-c4cc(C)on4)nn(C)c3Cl)C2)n1 (stereo unspecified)	10.44%
CCCS(=O)(=O)N1C[C@@H](OCc2ccncc2)[C@H]2OCCC[C@H]21	7.843%
O=C1NCCO[C@H]2CN(C(=O)CCc3ccccc3Cl)CC[C@@H]12	-14.29%
O=C(O)CCc1nc2nccc(C(F)(F)F)n2n1	14.86%
CC(C)Oc1cccc(C(O)CNC(=O)Nc2cccs2)c1 (stereo unspecified)	19.15%
CN(C)C(=O)c1cn2cc(-c3ccccc3Cl)n(CC3CC3)c(=O)c2n1	12.79%
CN1CCN([C@@H]2CN(C(=O)c3ccsc3)[C@@H]3CCCO[C@H]23)CC1	16.06%
COc1ccccc1C1(O)CCCN(C(=O)c2csc(C(C)=O)c2)C1 (stereo unspecified)	12.07%
Cc1nccc([C@@H]2C[C@@H]3CCN(Cc4ccco4)C[C@H]3O2)n1	9.15%
Cn1[nH]c(C2CCC2)c(-c2ccc3c(c2)OCO3)c1=N	17.08%
Cc1cc(C(=O)NC2CCc3c(ccc(=O)n3CCN(C)C)C2)no1 (stereo unspecified)	12.02%
Cc1cnc(NCCc2c[nH]cn2)nc1-c1ccnn1C	7.904%
COc1ccc2[nH]cc(CCNC(=O)C3CCCN(C(C)=O)C3)c2c1 (stereo unspecified)	8.639%
CS(=O)(=O)c1ccc(NC(=O)CSC(F)(F)F)cn1	4.124%
Cc1cc(NC(=O)NCc2ccccc2OC(F)F)n(C)n1	10.42%
Cc1cc(NC(=O)NCCc2cccnc2)n(C)n1	13.11%
Cc1cc(N(C)C)nc(N2CCN(C(C)c3nc(C)no3)CC2)n1 (stereo unspecified)	8.099%
CO[C@H]1CO[C@@]2(CCCN(S(=O)(=O)c3ccccc3)C2)C1	-2.667%
Cc1nc(C)n(C2CCCN(C(=O)CCOC(C)C)C2)n1 (stereo unspecified)	10.54%
CC(C)(C)n1cc(NC(=O)C2CN(Cc3ccccc3)CCO2)cn1 (stereo unspecified)	18.57%
CCSC(C)C(=O)N1CCC(c2nn(C)c(=O)n2-c2ccccc2)CC1 (stereo unspecified)	11.18%
FC1(F)CCNCC12CCN(c1ncccn1)C2 (stereo unspecified)	16.38%
Cc1ccc(C(=O)NCCCN(C)S(C)(=O)=O)cc1-n1cccc1	9.051%
O=C(Nc1ccnn1Cc1ccccc1Cl)C1CCS(=O)(=O)C1 (stereo unspecified)	11.55%
CC(C)C(=O)Nc1cc(C(C)(C)C)nn1-c1ccccn1	18.32%
CC(C)c1nnc(CNCC2CCCN2c2cccnn2)o1 (stereo unspecified)	11.35%
CC(C)CNC(=O)c1[nH]nc(C2CC2)c1Br	8.659%
CCC(NS(=O)(=O)c1ccc(C(=O)NC2CC2)cc1)c1cnn(C)c1 (stereo unspecified)	12.53%
CC[S+](CC)[c-]1c(=O)[nH]c(=O)n(CCc2ccc(F)cc2)c1=O	10.24%
Cc1ccc(S(=O)(=O)NCCc2cccnc2)cc1C	12.73%
CC1CCCCN1c1nc2c(c(=O)[nH]1)CCN(Cc1cccnc1)C2 (stereo unspecified)	20.21%
CCc1cccc(OCCn2cccc(C#N)c2=O)c1	1.087%
CN(C)Cc1nnc(C2CCN(C(=O)CCc3cccs3)CC2)n1C	12.68%
CN1CCCC1CNC(=O)CCOc1ccc(Cl)cc1 (stereo unspecified)	15.3%
CC(C)N1[C@H](CN2CCCC2)C[C@@H]2CN(Cc3ccoc3)CC[C@@H]21	14.49%
CN(C)c1nc2c(c(N(C)C)n1)CCN(C(=O)CN1CCC(O)CC1)C2	20.53%
CC(C)(C)c1cc(C[C@H]2CNCC[C@H]2CC(=O)Nc2ccccc2)no1	7.492%
O=C(c1ccnc(C2CCNCC2)c1)N1CCCC(CO)C1 (stereo unspecified)	10.38%
COc1ccc(C(NCc2cccc(O)c2)C2CC2)cc1 (stereo unspecified)	15.82%
N#CCCN(Cc1ccccn1)Cn1cc(Cl)cn1	-7.311%
c1cncc(N2CC[C@@H]3CN(CC4CC4)C[C@@H]3C2)c1	6.052%
O=C(c1cc(Cl)c[nH]c1=O)N1C[C@@H]2CC[C@H](C1)N(Cc1ccccc1)C2	9.202%
O=C(c1ccc2c(c1)OCO2)N1C[C@H](OCC2CC2)[C@H]2COC[C@H]21	5.072%
Cc1nc(CC(=O)N2CCN(C)CC2c2ccccc2)cs1 (stereo unspecified)	15.32%
CCc1c(C(=O)NC2CCS(=O)(=O)C2)cnn1-c1ccc(C)cc1 (stereo unspecified)	13.25%
CCOc1ccccc1N1CCN(c2nnc(C)o2)CC1	-15.76%
Cc1nc(C(C)C)sc1C(=O)NCCNc1ncccn1	23.43%
CCn1cnnc1CNC(=O)NCC(O)c1ccc(OC)cc1 (stereo unspecified)	12.21%
O=C(Nc1cccnc1N1CCSCC1)c1ccc2c(c1)CCC2	11.2%
Cc1cnccc1-c1cc(NCCO)nc2[nH]ccc12	1.083%
O=C(NCCc1nnc2n1CCCCC2)N1CCC2(CCCC2)CC1	-2.308%
O=C(NCc1nc2ccccc2[nH]1)c1cnn2c1OCCC2	16.55%
O=C(CCc1ccccc1Br)NCC(=O)NCc1ccccc1	12.36%
CCc1nc(CN2CCCN(C(=O)c3ccnc(C)n3)CC2)cs1	15.56%
CC(=O)N1CCC2(CCCN2Cc2cnn(C)c2)CC1	7.843%
COCc1nc(CNC2CCSC2)no1 (stereo unspecified)	10.44%
CC(NC(=O)NCCOc1ccc(Cl)cc1)c1nncn1C (stereo unspecified)	11.34%

Repeated from the top, 5 entries:

Compound,inhibition
O=C(c1cccc2c1OCO2)N1CCCC(n2cccn2)C1 (stereo unspecified),9.804%
COc1ccc(CN2CC[C@H]3[C@H]2CCN3C(=O)c2cnn(C)c2)cc1,5.724%
c1cnc2c(c1)cc([C@@H]1CCCO1)n2CCN1CCOCC1,5.208%
Fc1ccc2[nH]c([C@H]3CCN(C4CCOCC4)C3)nc2c1,3.297%
CCOCCCNS(=O)(=O)c1ccc2c(c1)NC(=O)C(C)O2 (stereo unspecified),2.66%

Source: ChEMBL document CHEMBL3988442, “University of Dundee, Small-Polar-MMV Screening Library” (2021).